The nature of the experiment: qHTS Assay for Lipid Storage Modulators in Drosophila S3 Cells.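 On cell number change: cells counted by Cell Tracker Red CMTPX staining in the red channel.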 As to conditions: BODIPY lipid droplet fluorescence, 18-24 h; for cell number change: measured here: cell count max response, cells fed with added oleic acid. An outline of the steps:
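Laser-scanning cytometry quantifies lipid droplet accumulation (500–530 nm total intensity; droplet/cell object ratio) in oleic acid-fed (400 uM added) Drosophila S3 cells treated with a concentration series. 20 uM Triacsin C defined 100% inhibition.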
(Quantitative high-throughput screening tests each substance at several concentrations.)

[1] abbreviates: measured here: cell number channel AC50, cells fed with added oleic acid.
Where [2] appears, read: measured here: lipid fluorescence (Fed channel) AC50, cells fed with added oleic acid.

Some of the results follow. The main result of the screen is listed elsewhere. These columns were measured beside it and carry no call. Compounds called inactive in the main read-out are mostly missing here. Words in brackets tell the shape of the fitted curve; partial curves, single points and poor fits give uncertain potencies.

A word on the AC50: it is the concentration giving half of the maximal activity seen. Low readings indicate greater potency, high ones weaker potency.

Consider `COc1ccccc1OCCCn1c(=O)oc2ccc(C)cc21`, for which the cell number change was 51%. In addition, the concentration at half-maximal activity (AC50) under setting [1] was 1.46 µM [rising, full curve]. In addition, the concentration at half-maximal activity (AC50) under setting [2] was 0.58 µM [falling, single point].

For `CC(O)C(=O)N/N=C/c1cccc2ccccc12` (stereo not drawn), the cell number change came out at 16.2%. Moreover, the AC50 under setting [2] is 13 µM [rising, single point].

On to `O=C(Nc1ccc(Cl)c(Cl)c1)N1CCSCC1`, for which the cell number change was -31%. The half-maximal activity concentration (AC50) under setting [1] is 18.4 µM [falling, single point]. Also, under setting [2], the AC50 was 16.4 µM [falling, single point].

Turning to `COc1ccccc1CNC(=O)CNC(=O)Cn1cnc2ccccc2c1=O`, the cell number change was -11.1%. Further, the AC50 under setting [1] is 6.51 µM [falling, single point].

`COc1ccc(-c2cnc(SCC(=O)Nc3nc(C(C)(C)C)cs3)n2Cc2ccco2)cc1`: the cell number change is -64.4%. Moreover, under setting [1], the half-maximal activity concentration (AC50) is 1.84 µM [falling, full curve]. Moreover, the AC50 under setting [2] was 1.16 µM [falling, full curve].

Consider `CCC(=O)c1ccc(N2CCN(S(=O)(=O)c3ccccc3)CC2)c(F)c1`, for which the AC50 under setting [2] is 0.731 µM [rising, full curve, poor fit].

Turning to `Oc1ccc2ccccc2c1CNc1cnc2ccccc2c1`, the cell number change is -46%. Also, under setting [1], the AC50 is 16.4 µM [falling, single point].

In the case of `CCOC(=O)c1c(C)[nH]c(=S)c(C#N)c1-c1ccccc1`, the cell number change amounted to 23.5%. The concentration at half-maximal activity (AC50) under setting [2] was 20.6 µM [falling, single point].

On to `CC1CCCCC1NC(=O)CN(C)S(=O)(=O)c1ccc2c(c1)CCC(=O)N2` (stereo not drawn), for which the cell number change was -7.41%.

As to `Cc1cc(=O)c(C(=O)Nc2cccc(C(=O)NC3CC3)c2)nn1-c1ccccc1Cl`, the cell number change worked out at 13.7%. Also, under setting [2], the AC50 was 14.6 µM [rising, partial curve].

Regarding `CCOc1cc(C2CC(=O)Nc3cc(C)c(C)cc32)ccc1O` (stereo not drawn), the cell number change is -4.47%. Also, the concentration at half-maximal activity (AC50) under setting [2] is 0.58 µM [rising, full curve, poor fit].

Regarding `Cc1ccc(CNc2nc(C)cs2)cc1`, the cell number change was found to be 4.7%.

As to `COc1ccc(-c2onc(C)c2C)cc1S(=O)(=O)NCCc1ccco1`, the cell number change was -4.25%.

`CC1CCCC(C)N1S(=O)(=O)c1ccc(NC(=O)CNCC2CCCO2)cc1` (stereo not drawn): the cell number change was -4.44%.

`Cc1ccsc1/C=N/NC(=O)c1ccco1`: the cell number change turned out to be 2.35%.

For `Cc1cc(C(=O)Cn2nc(C(=O)O)c3ccccc3c2=O)c(C)n1-c1ccc(OC(F)F)cc1`, under setting [1], the half-maximal activity concentration (AC50) is 0.00517 µM [rising, full curve, poor fit].

As to `COc1ccccc1OCCCCCNCCO`, the cell number change amounted to 0.631%.

Take `CC(C)n1c(-c2ccccc2)nc(=S)c2c1CCCC2`: the cell number change was -20.1%. Under setting [2], the concentration at half-maximal activity (AC50) is 0.0731 µM [falling, full curve, poor fit].

Regarding `COc1ccc(CN(CCN)C2CC(C)N(C)CC2C)cc1` (stereo not drawn), the cell number change amounted to 11%. In addition, under setting [1], the AC50 was 0.0731 µM [rising, full curve, poor fit]. Besides, the concentration at half-maximal activity (AC50) under setting [2] was 20.6 µM [rising, single point].

As for `COC(=O)c1cccc(NC(=S)NCc2ccc(F)cc2)c1`, the cell number change came out at 35.5%. Under setting [1], the half-maximal activity concentration (AC50) is 6.51 µM [rising, single point].

For `COc1ccc(-n2c(C)nc3c(cnn3-c3ccc(C)cc3)c2=O)cc1`, the cell number change came to 12.3%. Further, the concentration at half-maximal activity (AC50) under setting [2] is 0.259 µM [rising, partial curve, poor fit].

For the molecule `O=C(CN1CCCCC1)N1CCN(C(=O)CN2CCCCC2)CC1`, the cell number change turned out to be 6.07%.

In the case of `O=C(OCCN1CCCCC1)c1cccc(Cl)c1`, the cell number change was -8.14%. Besides, the AC50 under setting [2] was 0.0291 µM [falling, full curve, poor fit].

On to `CSc1ccc(C2C(C#N)=C(N)Oc3cc4c(cc32)OCO4)cc1` (stereo not drawn), for which the cell number change was determined as 97%. For the same molecule, under setting [1], the AC50 was 25.9 µM [rising, partial curve, poor fit]. Further, the half-maximal activity concentration (AC50) under setting [2] was 2.59 µM [rising, partial curve].

With `Cc1cc(C)n(/N=C/c2c[nH]c3ccccc23)c(=O)c1C#N`, the cell number change turned out to be 66.1%. The AC50 under setting [1] was 3.66 µM [rising, full curve]. In addition, the AC50 under setting [2] is 6.51 µM [rising, single point].

As to `CCN(CC)C(NC(=O)c1ccccc1)C(=O)c1ccccc1` (stereo not drawn), the cell number change was determined as 8.81%.

For the molecule `COc1ccc(Cn2ccnc2SCC(=O)Nc2ccccc2F)cc1`, the cell number change was determined as 24.3%.

As for `NS(=O)(=O)c1ccc(CCNC(=O)CN2CCN(Cc3cccc(C(F)(F)F)c3)CC2)cc1`, the cell number change was 12.2%. Under setting [2], the AC50 is 29.1 µM [falling, single point].

On to `Cc1ccc(-c2noc(C3CCCN(C(=O)c4ccc(C(C)(C)C)cc4)C3)n2)o1` (stereo not drawn), for which the cell number change is -1.28%. In addition, the AC50 under setting [2] was 5.17 µM [falling, partial curve].

With `CCOC(=O)c1c(NC(=O)Cn2nc(C(=O)O)c3ccccc3c2=O)sc(C)c1C`, the cell number change came to 33%. Also, the AC50 under setting [1] is 14.6 µM [rising, partial curve, poor fit]. Also, the half-maximal activity concentration (AC50) under setting [2] was 6.51 µM [rising, partial curve].

With `CCn1c(CNc2ccccc2Cl)nnc1SCC(=O)NCc1ccccc1`, the cell number change was -76.1%. For the same molecule, the half-maximal activity concentration (AC50) under setting [1] was 25.9 µM [falling, partial curve]. Further, the concentration at half-maximal activity (AC50) under setting [2] is 4.11 µM [falling, partial curve].

`FC(F)(F)c1cccc(CN2CCC(c3cc(-c4cccs4)n[nH]3)CC2)c1`: the cell number change is -57.2%. Besides, under setting [1], the AC50 was 20.6 µM [falling, single point]. For the same molecule, the half-maximal activity concentration (AC50) under setting [2] is 20.6 µM [falling, single point].

Take `O=C(c1cccc([N+](=O)[O-])c1)N1CCN(S(=O)(=O)/C=C/c2ccccc2)CC1`: the cell number change turned out to be 26.8%. The AC50 under setting [1] is 0.00461 µM [rising, full curve, poor fit]. For the same molecule, under setting [2], the AC50 is 0.00517 µM [rising, full curve, poor fit].

Turning to `COc1ccc2nc(SC(C)C(=O)NC3CCCCC3)[nH]c2c1` (stereo not drawn), the cell number change is -1.25%. Under setting [2], the half-maximal activity concentration (AC50) was 0.58 µM [falling, partial curve].

With `O=C(CCN1C(=O)C2C3C=CC(C3)C2C1=O)Nc1ccc2ncccc2c1` (stereo not drawn), the cell number change is 32.9%. Moreover, the half-maximal activity concentration (AC50) under setting [1] is 0.517 µM [rising, full curve, poor fit].

Regarding `O=C(COC(=O)c1ccc(S(=O)(=O)Nc2ccccc2)cc1)NCCC1=CCCCC1`, the cell number change was -1.06%. For the same molecule, the AC50 under setting [2] is 0.58 µM [falling, single point].

As for `COCCNc1nc(C)c(C(C)=O)s1`, the cell number change was -22.4%.

Turning to `COC(=O)c1ccc(NC(=O)CSc2nccn2CCc2ccccc2)cc1`, the cell number change is 56%. Moreover, the half-maximal activity concentration (AC50) under setting [1] was 6.51 µM [rising, partial curve].

For the molecule `COc1nonc1NCn1nc(C)cc1C`, the cell number change was -10.1%. In addition, the concentration at half-maximal activity (AC50) under setting [2] is 6.51 µM [falling, single point].

With `O=C(CCCn1c(=O)c2ccccc2n(Cc2ccccc2)c1=O)NCc1ccco1`, the cell number change was -19.3%. Besides, the AC50 under setting [2] was 1.16 µM [rising, full curve].

The record behind these values is PubChem BioAssay AID2685 (National Center for Advancing Translational Sciences (NCATS), 2010).
